This test deals with LRP1 on primary human macrophages (human (endogenous in primary human macrophages)) (UniProt Q07954). The test can be described thus: flow cytometry on cells; pd-VWF incubated with primary human monocyte-derived macrophages in RPMI + 1 mM CaCl2 for 30 min, Fc receptors blocked; with or without LRP1 blocking antibody; bound VWF detected with polyclonal rabbit anti-human VWF and anti-rabbit Alexa-488; only the binder purified.

Sequences of proteins named here, by UniProt entry; tags and fusion partners are left off. Residues count along the entry.
UniProt Q07954, residues 20-4544: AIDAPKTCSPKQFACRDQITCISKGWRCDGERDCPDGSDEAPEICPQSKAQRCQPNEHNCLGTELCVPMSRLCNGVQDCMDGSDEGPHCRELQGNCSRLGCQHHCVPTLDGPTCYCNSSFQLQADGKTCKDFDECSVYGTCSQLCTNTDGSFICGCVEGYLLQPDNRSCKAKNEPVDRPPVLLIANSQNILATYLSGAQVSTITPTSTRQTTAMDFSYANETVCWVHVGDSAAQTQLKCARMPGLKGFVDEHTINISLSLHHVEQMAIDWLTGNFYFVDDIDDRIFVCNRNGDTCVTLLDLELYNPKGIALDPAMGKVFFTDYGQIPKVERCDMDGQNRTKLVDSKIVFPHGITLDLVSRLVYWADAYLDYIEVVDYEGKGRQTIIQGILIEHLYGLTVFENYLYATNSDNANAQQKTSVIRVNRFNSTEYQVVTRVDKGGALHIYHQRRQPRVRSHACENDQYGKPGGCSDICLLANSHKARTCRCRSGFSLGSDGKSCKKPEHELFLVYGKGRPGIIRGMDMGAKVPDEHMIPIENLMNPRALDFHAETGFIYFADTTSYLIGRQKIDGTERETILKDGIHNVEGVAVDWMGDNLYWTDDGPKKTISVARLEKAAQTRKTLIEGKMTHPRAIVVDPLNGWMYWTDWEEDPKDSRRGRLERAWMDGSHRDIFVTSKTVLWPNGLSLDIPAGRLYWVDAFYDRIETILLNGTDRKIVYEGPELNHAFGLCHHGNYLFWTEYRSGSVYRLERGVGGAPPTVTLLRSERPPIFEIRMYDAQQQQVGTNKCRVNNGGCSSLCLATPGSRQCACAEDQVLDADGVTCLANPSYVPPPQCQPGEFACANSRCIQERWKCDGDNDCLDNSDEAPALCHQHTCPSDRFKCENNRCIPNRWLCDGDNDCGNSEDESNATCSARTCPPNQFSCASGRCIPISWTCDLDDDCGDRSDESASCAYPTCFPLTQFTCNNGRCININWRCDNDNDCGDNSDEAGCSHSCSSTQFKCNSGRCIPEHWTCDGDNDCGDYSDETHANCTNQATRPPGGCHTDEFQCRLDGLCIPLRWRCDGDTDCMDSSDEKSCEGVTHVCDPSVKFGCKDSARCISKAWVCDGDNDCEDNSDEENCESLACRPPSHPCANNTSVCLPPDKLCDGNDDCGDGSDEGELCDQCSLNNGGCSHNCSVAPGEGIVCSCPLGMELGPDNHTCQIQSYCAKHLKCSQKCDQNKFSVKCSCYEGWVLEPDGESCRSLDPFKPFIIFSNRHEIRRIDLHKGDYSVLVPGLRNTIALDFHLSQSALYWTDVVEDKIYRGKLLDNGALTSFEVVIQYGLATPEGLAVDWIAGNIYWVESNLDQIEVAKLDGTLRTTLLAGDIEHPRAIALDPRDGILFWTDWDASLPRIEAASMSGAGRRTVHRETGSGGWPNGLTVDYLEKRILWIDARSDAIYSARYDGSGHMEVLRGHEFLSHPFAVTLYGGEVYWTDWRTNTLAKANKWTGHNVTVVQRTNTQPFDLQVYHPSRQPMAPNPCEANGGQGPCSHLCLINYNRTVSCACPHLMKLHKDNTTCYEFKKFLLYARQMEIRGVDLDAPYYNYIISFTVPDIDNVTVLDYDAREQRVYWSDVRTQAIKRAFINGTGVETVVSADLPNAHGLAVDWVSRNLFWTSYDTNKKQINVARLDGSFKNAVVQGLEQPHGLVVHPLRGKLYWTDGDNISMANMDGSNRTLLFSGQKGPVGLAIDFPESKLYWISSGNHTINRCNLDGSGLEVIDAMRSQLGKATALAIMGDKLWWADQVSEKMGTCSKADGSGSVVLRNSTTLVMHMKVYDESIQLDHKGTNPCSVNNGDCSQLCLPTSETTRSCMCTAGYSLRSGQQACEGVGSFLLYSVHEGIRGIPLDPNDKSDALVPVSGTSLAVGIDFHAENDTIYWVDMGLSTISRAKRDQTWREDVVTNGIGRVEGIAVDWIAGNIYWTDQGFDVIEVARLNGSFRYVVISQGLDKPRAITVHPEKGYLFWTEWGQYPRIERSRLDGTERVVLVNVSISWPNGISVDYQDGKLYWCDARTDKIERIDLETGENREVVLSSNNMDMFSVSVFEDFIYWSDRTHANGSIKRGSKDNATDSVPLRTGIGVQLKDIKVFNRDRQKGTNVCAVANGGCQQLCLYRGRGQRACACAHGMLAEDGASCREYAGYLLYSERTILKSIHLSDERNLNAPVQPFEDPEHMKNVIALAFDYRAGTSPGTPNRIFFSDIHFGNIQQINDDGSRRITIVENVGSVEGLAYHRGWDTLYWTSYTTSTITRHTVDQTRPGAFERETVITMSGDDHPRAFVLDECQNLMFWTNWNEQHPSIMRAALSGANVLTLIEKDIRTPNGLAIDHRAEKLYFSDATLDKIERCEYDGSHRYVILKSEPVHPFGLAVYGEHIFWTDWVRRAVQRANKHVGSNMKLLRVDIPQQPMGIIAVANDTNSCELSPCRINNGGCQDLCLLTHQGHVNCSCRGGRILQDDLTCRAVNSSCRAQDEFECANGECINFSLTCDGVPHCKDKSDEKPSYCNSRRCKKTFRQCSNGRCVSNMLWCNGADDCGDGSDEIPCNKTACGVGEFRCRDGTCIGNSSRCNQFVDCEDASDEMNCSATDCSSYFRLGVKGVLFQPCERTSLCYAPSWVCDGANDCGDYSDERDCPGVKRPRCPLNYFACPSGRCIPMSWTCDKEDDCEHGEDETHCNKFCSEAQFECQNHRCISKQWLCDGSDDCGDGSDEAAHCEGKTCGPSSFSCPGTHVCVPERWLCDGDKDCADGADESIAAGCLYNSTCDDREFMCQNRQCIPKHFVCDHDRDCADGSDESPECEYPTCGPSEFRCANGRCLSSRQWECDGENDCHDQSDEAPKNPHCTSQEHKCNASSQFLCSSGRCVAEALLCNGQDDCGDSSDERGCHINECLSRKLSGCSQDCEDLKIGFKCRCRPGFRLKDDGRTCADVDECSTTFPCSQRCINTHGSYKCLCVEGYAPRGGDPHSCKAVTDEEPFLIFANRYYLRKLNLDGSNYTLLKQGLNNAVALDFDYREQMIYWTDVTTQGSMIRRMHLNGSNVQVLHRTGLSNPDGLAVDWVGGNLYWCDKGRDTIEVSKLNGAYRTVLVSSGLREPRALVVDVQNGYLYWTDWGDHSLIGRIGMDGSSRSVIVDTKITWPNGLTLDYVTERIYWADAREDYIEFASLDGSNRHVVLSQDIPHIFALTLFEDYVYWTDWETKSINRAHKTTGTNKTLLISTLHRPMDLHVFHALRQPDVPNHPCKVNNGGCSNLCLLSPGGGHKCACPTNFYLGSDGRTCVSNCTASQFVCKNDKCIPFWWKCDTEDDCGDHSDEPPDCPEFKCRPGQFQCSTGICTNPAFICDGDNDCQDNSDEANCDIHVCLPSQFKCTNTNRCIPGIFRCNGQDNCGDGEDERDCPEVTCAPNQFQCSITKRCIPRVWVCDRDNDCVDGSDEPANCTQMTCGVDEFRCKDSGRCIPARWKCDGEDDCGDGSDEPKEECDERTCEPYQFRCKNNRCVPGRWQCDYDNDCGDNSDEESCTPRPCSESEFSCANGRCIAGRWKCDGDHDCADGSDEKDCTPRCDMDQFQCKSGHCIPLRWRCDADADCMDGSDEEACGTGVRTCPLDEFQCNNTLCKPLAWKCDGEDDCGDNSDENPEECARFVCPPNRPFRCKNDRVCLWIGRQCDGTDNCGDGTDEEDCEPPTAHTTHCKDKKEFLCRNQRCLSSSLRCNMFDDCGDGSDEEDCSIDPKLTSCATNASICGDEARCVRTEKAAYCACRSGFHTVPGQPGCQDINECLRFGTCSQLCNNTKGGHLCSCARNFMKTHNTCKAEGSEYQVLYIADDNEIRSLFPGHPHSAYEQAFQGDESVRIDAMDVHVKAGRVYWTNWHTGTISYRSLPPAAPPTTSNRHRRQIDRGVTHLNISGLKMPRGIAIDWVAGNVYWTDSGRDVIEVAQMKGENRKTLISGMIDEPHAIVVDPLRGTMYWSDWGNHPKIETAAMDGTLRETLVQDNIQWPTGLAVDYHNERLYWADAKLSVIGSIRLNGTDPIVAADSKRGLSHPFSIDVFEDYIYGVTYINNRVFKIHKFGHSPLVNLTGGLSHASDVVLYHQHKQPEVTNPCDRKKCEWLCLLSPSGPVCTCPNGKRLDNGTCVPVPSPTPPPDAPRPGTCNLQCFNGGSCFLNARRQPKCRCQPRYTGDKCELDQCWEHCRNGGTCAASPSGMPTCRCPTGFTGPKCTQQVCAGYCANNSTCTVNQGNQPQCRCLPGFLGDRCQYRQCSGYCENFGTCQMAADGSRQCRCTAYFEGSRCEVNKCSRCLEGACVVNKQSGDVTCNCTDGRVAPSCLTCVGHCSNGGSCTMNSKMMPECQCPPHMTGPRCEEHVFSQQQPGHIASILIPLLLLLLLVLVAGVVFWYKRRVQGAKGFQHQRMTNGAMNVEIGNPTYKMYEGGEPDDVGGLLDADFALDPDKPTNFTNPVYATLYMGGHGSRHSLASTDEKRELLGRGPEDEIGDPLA
UniProt P04275, residues 764-2813: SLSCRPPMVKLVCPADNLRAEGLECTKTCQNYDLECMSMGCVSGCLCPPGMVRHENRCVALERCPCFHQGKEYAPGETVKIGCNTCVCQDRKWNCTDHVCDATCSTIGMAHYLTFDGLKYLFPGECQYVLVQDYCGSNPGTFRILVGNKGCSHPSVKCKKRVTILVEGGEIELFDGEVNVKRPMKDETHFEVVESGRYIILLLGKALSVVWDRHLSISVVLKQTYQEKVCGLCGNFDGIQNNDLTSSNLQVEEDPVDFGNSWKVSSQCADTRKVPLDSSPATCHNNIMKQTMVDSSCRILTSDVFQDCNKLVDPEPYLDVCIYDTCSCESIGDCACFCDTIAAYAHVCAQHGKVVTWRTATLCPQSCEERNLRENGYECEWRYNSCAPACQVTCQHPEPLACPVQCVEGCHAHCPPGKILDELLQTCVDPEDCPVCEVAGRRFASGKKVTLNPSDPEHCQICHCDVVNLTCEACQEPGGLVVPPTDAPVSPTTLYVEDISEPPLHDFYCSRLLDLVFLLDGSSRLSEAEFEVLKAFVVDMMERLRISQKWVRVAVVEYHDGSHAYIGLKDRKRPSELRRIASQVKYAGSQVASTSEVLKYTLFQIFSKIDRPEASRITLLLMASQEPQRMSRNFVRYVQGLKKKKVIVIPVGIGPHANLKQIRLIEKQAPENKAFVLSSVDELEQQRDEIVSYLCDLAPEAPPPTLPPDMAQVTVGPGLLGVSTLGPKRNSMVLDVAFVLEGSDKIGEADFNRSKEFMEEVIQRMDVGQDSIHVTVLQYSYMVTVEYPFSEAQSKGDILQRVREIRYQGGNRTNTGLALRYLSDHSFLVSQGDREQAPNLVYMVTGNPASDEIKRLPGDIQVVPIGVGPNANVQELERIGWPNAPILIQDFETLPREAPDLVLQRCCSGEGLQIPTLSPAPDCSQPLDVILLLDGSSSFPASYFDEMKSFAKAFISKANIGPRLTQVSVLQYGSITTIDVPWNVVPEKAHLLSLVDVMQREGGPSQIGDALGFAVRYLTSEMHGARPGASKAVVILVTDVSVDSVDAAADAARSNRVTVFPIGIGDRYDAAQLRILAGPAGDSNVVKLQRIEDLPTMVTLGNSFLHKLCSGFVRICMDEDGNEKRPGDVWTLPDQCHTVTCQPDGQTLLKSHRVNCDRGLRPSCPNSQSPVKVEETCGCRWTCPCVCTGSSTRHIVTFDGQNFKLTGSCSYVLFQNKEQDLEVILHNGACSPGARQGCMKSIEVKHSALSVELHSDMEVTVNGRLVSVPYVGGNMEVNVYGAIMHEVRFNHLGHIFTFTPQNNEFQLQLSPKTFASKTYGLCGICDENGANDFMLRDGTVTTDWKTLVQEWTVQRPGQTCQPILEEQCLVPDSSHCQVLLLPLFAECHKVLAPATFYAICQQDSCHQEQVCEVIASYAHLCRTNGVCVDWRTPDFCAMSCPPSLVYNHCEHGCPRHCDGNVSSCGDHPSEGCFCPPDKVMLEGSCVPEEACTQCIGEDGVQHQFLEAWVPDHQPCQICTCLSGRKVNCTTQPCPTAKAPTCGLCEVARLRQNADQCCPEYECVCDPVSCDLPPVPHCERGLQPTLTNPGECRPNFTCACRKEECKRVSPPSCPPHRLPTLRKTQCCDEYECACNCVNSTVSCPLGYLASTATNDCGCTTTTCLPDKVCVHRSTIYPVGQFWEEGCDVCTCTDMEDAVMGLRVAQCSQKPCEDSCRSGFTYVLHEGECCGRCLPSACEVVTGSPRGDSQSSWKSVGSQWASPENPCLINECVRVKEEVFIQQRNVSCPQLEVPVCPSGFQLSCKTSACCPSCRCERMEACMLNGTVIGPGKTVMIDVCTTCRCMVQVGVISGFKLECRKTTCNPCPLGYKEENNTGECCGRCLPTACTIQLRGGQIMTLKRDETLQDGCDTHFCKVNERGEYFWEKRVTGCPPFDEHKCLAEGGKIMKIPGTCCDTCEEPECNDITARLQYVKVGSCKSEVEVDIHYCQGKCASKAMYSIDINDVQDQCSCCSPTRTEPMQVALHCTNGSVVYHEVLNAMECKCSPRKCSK

No constants are given. Whether binding was seen depends on the method and setting. Some results given as binding are weak or reduced against the parent protein; the word gives no strength.

For the substance “Human plasma-derived von Willebrand factor-Factor VIII free (from UniProt P04275 764-2813)”, the binding entry was “binds”.

The record behind these values is paper PMC9633696.
